Laboratory results from the supplement of paper PMC5355238.
Structures can show the parent of a compound that is named as a salt. This is one part of the list. Most values lie at the level of the controls, where differences are scatter.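 Using flow cytometry, the assay measures the median γH2AX antibody signal in S-phase Reh cells (a human leukemia line). Each score is the number of standard deviations from the median difference of paired plate sets. Candidate hits scored above 2.5; compounds scoring below -2 lowered MK1775-induced damage.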

tested on: Reh; experiment: Z' of S-phase gammaH2AX difference (drug + MK1775 minus drug alone) (Z-score); higher = stronger synergistic S-phase DNA damage with MK1775; conditions: MK1775 concentration 400 nM; first compound 10 µM; 4 h

Row | Compound | Z' of S-phase gammaH2AX difference (Z-score)
1 | Cn1cnc(CCN)c1 [1-Methylhistamine dihydrochloride] + C=CCn1c(=O)c2cnc(Nc3ccc(N4CCN(C)CC4)cc3)nc2n1-c1cccc(C(C)(C)O)n1 [MK1775] | inactive: 0.456
2 | C1CCc2nnnn2CC1 [Pentylenetetrazole] + C=CCn1c(=O)c2cnc(Nc3ccc(N4CCN(C)CC4)cc3)nc2n1-c1cccc(C(C)(C)O)n1 [MK1775] | inactive: 1.35
3 | CC(C)N(CCC(C(N)=O)(c1ccccc1)c1ccccn1)C(C)C (configuration not stated) [Disopyramide] + C=CCn1c(=O)c2cnc(Nc3ccc(N4CCN(C)CC4)cc3)nc2n1-c1cccc(C(C)(C)O)n1 [MK1775] | inactive: 0.901
4 | CC(C)N(CCC(C(N)=O)(c1ccccc1)c1ccccn1)C(C)C (configuration not stated) [Disopyramide phosphate] + C=CCn1c(=O)c2cnc(Nc3ccc(N4CCN(C)CC4)cc3)nc2n1-c1cccc(C(C)(C)O)n1 [MK1775] | inactive: 0.284
5 | N=C(N)NN [Aminoguanidine hemisulfate] + C=CCn1c(=O)c2cnc(Nc3ccc(N4CCN(C)CC4)cc3)nc2n1-c1cccc(C(C)(C)O)n1 [MK1775] | inactive: -0.281
6 | N=C(N)NN [Aminoguanidine hydrochloride] + C=CCn1c(=O)c2cnc(Nc3ccc(N4CCN(C)CC4)cc3)nc2n1-c1cccc(C(C)(C)O)n1 [MK1775] | inactive: 0.575
7 | C=CCN1C[C@H](C)N([C@H](c2ccc(C(=O)N(CC)CC)cc2)c2cccc(OC)c2)C[C@H]1C + C=CCn1c(=O)c2cnc(Nc3ccc(N4CCN(C)CC4)cc3)nc2n1-c1cccc(C(C)(C)O)n1 [MK1775] | inactive: -0.14
8 | C[C@]12CC[C@@H](O)C[C@@H]1CC[C@@H]1[C@@H]2CC[C@]2(C)[C@@H](O)CC[C@@H]12 [5alpha-Androstane-3alpha,17beta-diol] + C=CCn1c(=O)c2cnc(Nc3ccc(N4CCN(C)CC4)cc3)nc2n1-c1cccc(C(C)(C)O)n1 [MK1775] | inactive: -0.287
9 | CC(Cc1ccc(OCC(=O)O)cc1)NCC(O)c1cccc(Cl)c1 (configuration not stated) + C=CCn1c(=O)c2cnc(Nc3ccc(N4CCN(C)CC4)cc3)nc2n1-c1cccc(C(C)(C)O)n1 [MK1775] | inactive: -0.0401
10 | OC1CCCCC1N1CCC(c2ccccc2)CC1 (configuration not stated) [(?)-Vesamicol hydrochloride] + C=CCn1c(=O)c2cnc(Nc3ccc(N4CCN(C)CC4)cc3)nc2n1-c1cccc(C(C)(C)O)n1 [MK1775] | inactive: 0.874
11 | N[C@@H](Cc1ccc(N(CCCl)CCCl)cc1)C(=O)O [Melphalan] + C=CCn1c(=O)c2cnc(Nc3ccc(N4CCN(C)CC4)cc3)nc2n1-c1cccc(C(C)(C)O)n1 [MK1775] | inactive: -0.563
12 | O=[N+]([O-])c1cc(O)c(O)c([N+](=O)[O-])c1 [3,5-Dinitrocatechol] + C=CCn1c(=O)c2cnc(Nc3ccc(N4CCN(C)CC4)cc3)nc2n1-c1cccc(C(C)(C)O)n1 [MK1775] | inactive: -0.517
13 | CN[C@@H]1C[C@@H](c2ccc(Cl)c(Cl)c2)c2ccccc21 [Indatraline hydrochloride] + C=CCn1c(=O)c2cnc(Nc3ccc(N4CCN(C)CC4)cc3)nc2n1-c1cccc(C(C)(C)O)n1 [MK1775] | inactive: -0.00243
14 | CN1[C@@H]2CC[C@H]1C[C@@H](OC(=O)[C@H](CO)c1ccccc1)C2 [L-Hyoscyamine] + C=CCn1c(=O)c2cnc(Nc3ccc(N4CCN(C)CC4)cc3)nc2n1-c1cccc(C(C)(C)O)n1 [MK1775] | inactive: 0.144
15 | CN(C)CCN(C)CCc1ccc(Cl)c(Cl)c1 + C=CCn1c(=O)c2cnc(Nc3ccc(N4CCN(C)CC4)cc3)nc2n1-c1cccc(C(C)(C)O)n1 [MK1775] | inactive: -0.112
16 | C[C@H](N)CN1CCc2ccc(Br)cc21 [VER-3323 hemifumarate salt] + C=CCn1c(=O)c2cnc(Nc3ccc(N4CCN(C)CC4)cc3)nc2n1-c1cccc(C(C)(C)O)n1 [MK1775] | inactive: -0.00485
17 | C=C(C)[C@H]1CN[C@H](C(=O)O)[C@H]1CC(=O)O [Kainic acid] + C=CCn1c(=O)c2cnc(Nc3ccc(N4CCN(C)CC4)cc3)nc2n1-c1cccc(C(C)(C)O)n1 [MK1775] | inactive: 1.31
18 | N[C@@H](Cn1ccc(=O)[nH]c1=O)C(=O)O [S(-)-Willardiine] + C=CCn1c(=O)c2cnc(Nc3ccc(N4CCN(C)CC4)cc3)nc2n1-c1cccc(C(C)(C)O)n1 [MK1775] | inactive: 0.755
19 | CC12CCC3C(CCC4=C(O)C(=O)CCC43C)C1CCC2=O (configuration not stated) [4-Androsten-4-ol-3,17-dione] + C=CCn1c(=O)c2cnc(Nc3ccc(N4CCN(C)CC4)cc3)nc2n1-c1cccc(C(C)(C)O)n1 [MK1775] | inactive: -0.454

Row | Compound | Z' of S-phase gammaH2AX difference (Z-score)
20 | O=[N+]([O-])c1ccc2nc(N3CCNCC3)ccc2c1 [Quipazine, 6-nitro-, maleate] + C=CCn1c(=O)c2cnc(Nc3ccc(N4CCN(C)CC4)cc3)nc2n1-c1cccc(C(C)(C)O)n1 [MK1775] | inactive: -0.325
21 | c1ccc2c(N3CCNCC3)cccc2c1 [1-(1-Naphthyl)piperazine hydrochloride] + C=CCn1c(=O)c2cnc(Nc3ccc(N4CCN(C)CC4)cc3)nc2n1-c1cccc(C(C)(C)O)n1 [MK1775] | inactive: 0.255
22 | CCCN(CCC)CCc1c[nH]c2ccc(C(N)=O)cc12 [N,N-Dipropyl-5-carboxamidotryptamine maleate] + C=CCn1c(=O)c2cnc(Nc3ccc(N4CCN(C)CC4)cc3)nc2n1-c1cccc(C(C)(C)O)n1 [MK1775] | inactive: -0.0899
23 | CC(C)NC(C)Cc1ccc(I)cc1 (configuration not stated) [Iofetamine hydrochloride] + C=CCn1c(=O)c2cnc(Nc3ccc(N4CCN(C)CC4)cc3)nc2n1-c1cccc(C(C)(C)O)n1 [MK1775] | inactive: 0.605
24 | NCC#Cc1ccccc1 [3-Phenylpropargylamine hydrochloride] + C=CCn1c(=O)c2cnc(Nc3ccc(N4CCN(C)CC4)cc3)nc2n1-c1cccc(C(C)(C)O)n1 [MK1775] | inactive: 0.568
25 | NCC(O)c1ccc(O)cc1 (configuration not stated) [(?)-Octopamine hydrochloride] + C=CCn1c(=O)c2cnc(Nc3ccc(N4CCN(C)CC4)cc3)nc2n1-c1cccc(C(C)(C)O)n1 [MK1775] | inactive: -0.267
26 | COC(=O)N1CCN(C(=O)Cc2ccc(Cl)c(Cl)c2)C(CN2CCCC2)C1 (configuration not stated) + C=CCn1c(=O)c2cnc(Nc3ccc(N4CCN(C)CC4)cc3)nc2n1-c1cccc(C(C)(C)O)n1 [MK1775] | inactive: 1.05
27 | N=C(NCCC[C@H](N)C(=O)O)N[N+](=O)[O-] [NG-Nitro-L-arginine] + C=CCn1c(=O)c2cnc(Nc3ccc(N4CCN(C)CC4)cc3)nc2n1-c1cccc(C(C)(C)O)n1 [MK1775] | inactive: 0.296
28 | CCCN(CCC)C1Cc2cc(OC)c(OC)cc2C1 + C=CCn1c(=O)c2cnc(Nc3ccc(N4CCN(C)CC4)cc3)nc2n1-c1cccc(C(C)(C)O)n1 [MK1775] | inactive: 0.028
29 | O=c1c2ccccc2[se]n1-c1ccccc1 [Ebselen] + C=CCn1c(=O)c2cnc(Nc3ccc(N4CCN(C)CC4)cc3)nc2n1-c1cccc(C(C)(C)O)n1 [MK1775] | inactive: -0.0753
30 | CN1CCC23CCCCC2C1Cc1ccc(O)cc13 [Dextrorphan D-tartrate] + C=CCn1c(=O)c2cnc(Nc3ccc(N4CCN(C)CC4)cc3)nc2n1-c1cccc(C(C)(C)O)n1 [MK1775] | inactive: -1.08
31 | CC(=O)O[C@H]1C[C@@H]2CC[C@@H]3[C@H](CC[C@@]4(C)[C@H]3C[C@H]([N+]3(C)CCCCC3)[C@@H]4OC(C)=O)[C@@]2(C)C[C@@H]1[N+]1(C)CCCCC1 [Pancuronium bromide] + C=CCn1c(=O)c2cnc(Nc3ccc(N4CCN(C)CC4)cc3)nc2n1-c1cccc(C(C)(C)O)n1 [MK1775] | inactive: 1.94
32 | S=C=Nc1cccc(C2(N3CCCCC3)CCCCC2)c1 [Metaphit methanesulfonate] + C=CCn1c(=O)c2cnc(Nc3ccc(N4CCN(C)CC4)cc3)nc2n1-c1cccc(C(C)(C)O)n1 [MK1775] | inactive: -0.311
33 | NC(CCCCCP(=O)(O)O)C(=O)O (configuration not stated) [(?)-2-Amino-7-phosphonoheptanoic acid] + C=CCn1c(=O)c2cnc(Nc3ccc(N4CCN(C)CC4)cc3)nc2n1-c1cccc(C(C)(C)O)n1 [MK1775] | inactive: -0.244
34 | CN1CCc2cccc(Cl)c2CC1 + C=CCn1c(=O)c2cnc(Nc3ccc(N4CCN(C)CC4)cc3)nc2n1-c1cccc(C(C)(C)O)n1 [MK1775] | inactive: 0.453
35 | COC(=O)[C@@H](N)CCCNC(=N)N[N+](=O)[O-] [NG-Nitro-L-arginine methyl ester hydrochloride] + C=CCn1c(=O)c2cnc(Nc3ccc(N4CCN(C)CC4)cc3)nc2n1-c1cccc(C(C)(C)O)n1 [MK1775] | inactive: 0.131
36 | C=CCN1CC[C@]23c4c5ccc(O)c4O[C@H]2C(=O)CC[C@@]3(O)[C@H]1C5 [Naloxone hydrochloride] + C=CCn1c(=O)c2cnc(Nc3ccc(N4CCN(C)CC4)cc3)nc2n1-c1cccc(C(C)(C)O)n1 [MK1775] | inactive: -0.466
37 | CP(=O)(O)C1=CCNCC1 + C=CCn1c(=O)c2cnc(Nc3ccc(N4CCN(C)CC4)cc3)nc2n1-c1cccc(C(C)(C)O)n1 [MK1775] | inactive: -0.382

Rewritten tab-delimited: part of the list above
Row	Compound	Z' of S-phase gammaH2AX difference (Z-score)
3	CC(C)N(CCC(C(N)=O)(c1ccccc1)c1ccccn1)C(C)C (configuration not stated) [Disopyramide] + C=CCn1c(=O)c2cnc(Nc3ccc(N4CCN(C)CC4)cc3)nc2n1-c1cccc(C(C)(C)O)n1 [MK1775]	inactive: 0.901
5	N=C(N)NN [Aminoguanidine hemisulfate] + C=CCn1c(=O)c2cnc(Nc3ccc(N4CCN(C)CC4)cc3)nc2n1-c1cccc(C(C)(C)O)n1 [MK1775]	inactive: -0.281
7	C=CCN1C[C@H](C)N([C@H](c2ccc(C(=O)N(CC)CC)cc2)c2cccc(OC)c2)C[C@H]1C + C=CCn1c(=O)c2cnc(Nc3ccc(N4CCN(C)CC4)cc3)nc2n1-c1cccc(C(C)(C)O)n1 [MK1775]	inactive: -0.14
23	CC(C)NC(C)Cc1ccc(I)cc1 (configuration not stated) [Iofetamine hydrochloride] + C=CCn1c(=O)c2cnc(Nc3ccc(N4CCN(C)CC4)cc3)nc2n1-c1cccc(C(C)(C)O)n1 [MK1775]	inactive: 0.605
24	NCC#Cc1ccccc1 [3-Phenylpropargylamine hydrochloride] + C=CCn1c(=O)c2cnc(Nc3ccc(N4CCN(C)CC4)cc3)nc2n1-c1cccc(C(C)(C)O)n1 [MK1775]	inactive: 0.568
35	COC(=O)[C@@H](N)CCCNC(=N)N[N+](=O)[O-] [NG-Nitro-L-arginine methyl ester hydrochloride] + C=CCn1c(=O)c2cnc(Nc3ccc(N4CCN(C)CC4)cc3)nc2n1-c1cccc(C(C)(C)O)n1 [MK1775]	inactive: 0.131
37	CP(=O)(O)C1=CCNCC1 + C=CCn1c(=O)c2cnc(Nc3ccc(N4CCN(C)CC4)cc3)nc2n1-c1cccc(C(C)(C)O)n1 [MK1775]	inactive: -0.382
